Assay results published in PubChem BioAssay AID2685 (National Center for Advancing Translational Sciences (NCATS), 2010).
The list shows a part of the results. Shown are side measurements of this screen, not its main read-out; they come without a call. Most of these compounds were active or inconclusive in the main read-out, so they are no random draw. Words in brackets tell the shape of the fitted curve; partial curves, single points and poor fits give uncertain potencies.

Test: qHTS Assay for Lipid Storage Modulators in Drosophila S3 Cells;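 on cell number change: cells counted by Cell Tracker Red CMTPX staining in the red channel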
Settings: BODIPY lipid droplet fluorescence, 18-24 h; for cell number change: measured here: cell count max response, cells fed with added oleic acid
In short: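 Drosophila S3 cells loaded with oleic acid (400 uM, as added) and compounds at several concentrations; lipid droplets imaged by 488-nm laser-scanning cytometry, 500–530 nm intensity and object ratio to cell channel. Percent activity normalized to 20 uM Triacsin C.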

[1] = measured here: cell number channel AC50, cells fed with added oleic acid
[2] = measured here: lipid fluorescence (Fed channel) AC50, cells fed with added oleic acid

Structure (SMILES)	cell number change [%]	AC50 [1]	AC50 [2]
Cn1nc(C(C)(C)C)cc1C(=O)NCc1cc(F)cc2c1OCOC2	-53.1	9.2 µM [falling, partial curve]	10.3 µM [falling, partial curve]
CC1CCN(C(=O)NC(=O)c2ccccc2)CC1	15.2		29.1 µM [falling, single point]
c1cnc2ccc(-c3ccc4ncccc4c3)cc2c1	-13.5		25.9 µM [falling, single point]
O=C(c1ccc(CS(=O)(=O)c2ccc(Br)cc2)o1)N1CCN(c2ccc(F)cc2)CC1	-39	29.1 µM [falling, single point]	
CC(=O)NC1CC2CCCC(C1)N2CC(=O)NCc1ccc(F)cc1 (configuration not stated)	-3.87		1.3 µM [falling, partial curve]
CC(=O)Nc1cc(OC(=O)c2ccco2)cc(OC(=O)c2ccco2)c1	-0.0424		23.1 µM [falling, single point]
COc1ccc(NC(=O)C2CC(=O)OC23CCOC(C)(C)C3)cc1 (configuration not stated)	5.69	0.092 µM [falling, full curve, poor fit]	
COc1ccc(S(=O)(=O)N(CC(=O)N2CCN(C)CC2)C2CCCCC2)cc1OC	20.9		0.116 µM [rising, full curve, poor fit]
O=C(COc1ccc2ccc(=O)oc2c1)NCCCN1CCCC1=O	-21.2		
CNC(=O)CN(c1ccc2c(c1)OCCO2)S(C)(=O)=O	-15		16.4 µM [falling, partial curve]
CCCN1CCN(C(=O)Cn2cnc3sc(C)c(S(=O)(=O)N4CCC(C)CC4)c3c2=O)CC1	25		
COc1ccc(OC)c(C2C(C#N)=C(N)Oc3cc(C)n(Cc4ccccn4)c(=O)c32)c1 (configuration not stated)	-12.4		
CCC(C)[C@H](NC(=O)NCc1ccc(Cl)cc1)C(=O)OC (some centres not stated)	16.3		3.26 µM [falling, partial curve, poor fit]
CCc1ccc(S(=O)(=O)Nc2c(C)nc3nc[nH]n3c2=O)cc1	5.86		
CCOc1ccc(C(=O)CN2C(=O)NC3(CCCCCC3)C2=O)cc1	-57.4	32.6 µM [falling, single point]	
COC(=O)C1=CN(Cc2ccc(OC)c(OC)c2)C=C(C(=O)OC)C1c1ccc(O)cc1	-37.3	20.6 µM [falling, single point]	
O=C(c1ccco1)N1CCN(c2ncnc3c2[nH]c2ccc(Cl)cc23)CC1	-7.02		0.259 µM [rising, full curve, poor fit]
O=C(OCc1nnc(-c2ccccc2)o1)c1ccco1	-0.814		
CC(C)(C)c1ccc(S(=O)(=O)NCC(=O)N2CCN(C(=O)c3ccco3)CC2)cc1	-12.4		
O=C(O)C1C2C=CC(C2)C1C(=O)Nc1ccc(Cl)c(Cl)c1 (configuration not stated)	1.05		
O=S(=O)(NCC1CCCO1)c1ccc2oc3ccc(S(=O)(=O)NCC4CCCO4)cc3c2c1 (configuration not stated)	13.2		

Only AC50 [2] and cell number change [%] (4 entries from above):
Structure (SMILES) | AC50 [2] | cell number change [%]
O=C(COc1ccc2ccc(=O)oc2c1)NCCCN1CCCC1=O |  | -21.2
CNC(=O)CN(c1ccc2c(c1)OCCO2)S(C)(=O)=O | 16.4 µM [falling, partial curve] | -15
CCCN1CCN(C(=O)Cn2cnc3sc(C)c(S(=O)(=O)N4CCC(C)CC4)c3c2=O)CC1 |  | 25
COc1ccc(OC)c(C2C(C#N)=C(N)Oc3cc(C)n(Cc4ccccn4)c(=O)c32)c1 (configuration not stated) |  | -12.4

Later entries:

Structure (SMILES)	cell number change [%]	AC50 [1]	AC50 [2]
COc1ccc(-n2c(SCc3ccc([N+](=O)[O-])cc3)nnc2-c2ccc(C)cc2)cc1	-8.14		23.1 µM [rising, single point]
Cn1nc(C(=O)Oc2cc(=O)n(C)c3ccccc23)c2ccccc2c1=O		6.51 µM [falling, single point]	6.51 µM [falling, single point]
NC(=O)c1ccccc1NC(=O)Cc1cccs1	-5.56		18.4 µM [rising, single point]
O=C(O)c1cccc(-n2cccc2/C=C\[N+](=O)[O-])c1	-24.2		
CCOC(=O)c1cnc2ccc(OCC)cc2c1N1CCN(c2ccccc2)CC1	-0.566	1.16 µM [rising, full curve, poor fit]	1.84 µM [rising, partial curve]
O=C(COC(=O)c1cccs1)Nc1nnc(-c2ccccc2)o1	11.8		1.64 µM [rising, partial curve]
Cc1ccnc(NC(=O)c2cc([N+](=O)[O-])cc([N+](=O)[O-])c2)c1	9.34		
CCC1(c2ccc(F)cc2)NC(=O)N(CC(=O)N2CCN(C(=O)c3cccs3)CC2)C1=O (configuration not stated)	-12.5		
COc1ccc(CCCc2nnc(SCC(=O)Nc3cc(C)c(C)cc3Br)o2)cc1	84.5	5.8 µM [rising, full curve]	
Cc1ccccc1/C=C1\C(=O)Nc2ccc(F)cc21	-24.1		
CCOC(=O)[C@H]1[C@H]2COc3ccc(OC)cc3[C@@H]2N2C(=O)c3cc(C)ccc3NC(=O)[C@@]12C			0.0731 µM [falling, full curve, poor fit]
COc1ccc([C@H]2CC(=O)C=C(c3ccccc3)C2)cc1OC	-24.3		
CCC(C)c1ccc(NC(=S)NC2CCN(Cc3ccccc3)CC2)cc1 (configuration not stated)	-23.5		
C=CCOc1cccc(/C=N/NC(=O)C(OC)c2ccccc2)c1 (configuration not stated)	13.9	6.51 µM [rising, single point]	3.26 µM [rising, full curve]
O=C(N/N=C1\C2CN3CCN(C2)CC1(c1ccccc1)C3)Nc1ccccc1	-13.5		0.651 µM [rising, full curve]
CN(C)c1ccc(/C=N/NC2=NS(=O)(=O)c3ccccc32)cc1		6.51 µM [rising, single point]	
COc1ccc2[nH]c3c(=O)n(CCc4ccccc4)cnc3c2c1	32.3	1.46 µM [rising, full curve]	7.31 µM [rising, partial curve]
COC(=O)c1c(NC(=O)CSc2nnc(-c3cccnc3)n2Cc2ccco2)sc(C)c1C		0.58 µM [rising, single point]	
O=C1C=C(c2cc3ccccc3s2)C[C@@H](c2ccc3c(c2)OCO3)C1	10.6		0.116 µM [rising, full curve, poor fit]
Cc1cc(C(=O)CSc2nnc(Nc3ccccc3)s2)c(C)n1CC1CCCO1 (configuration not stated)	-40.4	16.4 µM [falling, partial curve, poor fit]	29.1 µM [falling, single point]
c1ccc2c(c1)[nH]c1c(N3CCC4(CC3)OCCO4)ncnc12	9.28		5.17 µM [rising, single point]
